Source: EP4778539A1
These are yes or no findings as the source states them, for the method shown. Some binding calls cover weakened binding; strength is not graded here.

T1: mouse CAPRIN-1 on the cell membrane surface of mouse cancer cells (mouse) (UniProt Q60865)
T1 sequence (looked up): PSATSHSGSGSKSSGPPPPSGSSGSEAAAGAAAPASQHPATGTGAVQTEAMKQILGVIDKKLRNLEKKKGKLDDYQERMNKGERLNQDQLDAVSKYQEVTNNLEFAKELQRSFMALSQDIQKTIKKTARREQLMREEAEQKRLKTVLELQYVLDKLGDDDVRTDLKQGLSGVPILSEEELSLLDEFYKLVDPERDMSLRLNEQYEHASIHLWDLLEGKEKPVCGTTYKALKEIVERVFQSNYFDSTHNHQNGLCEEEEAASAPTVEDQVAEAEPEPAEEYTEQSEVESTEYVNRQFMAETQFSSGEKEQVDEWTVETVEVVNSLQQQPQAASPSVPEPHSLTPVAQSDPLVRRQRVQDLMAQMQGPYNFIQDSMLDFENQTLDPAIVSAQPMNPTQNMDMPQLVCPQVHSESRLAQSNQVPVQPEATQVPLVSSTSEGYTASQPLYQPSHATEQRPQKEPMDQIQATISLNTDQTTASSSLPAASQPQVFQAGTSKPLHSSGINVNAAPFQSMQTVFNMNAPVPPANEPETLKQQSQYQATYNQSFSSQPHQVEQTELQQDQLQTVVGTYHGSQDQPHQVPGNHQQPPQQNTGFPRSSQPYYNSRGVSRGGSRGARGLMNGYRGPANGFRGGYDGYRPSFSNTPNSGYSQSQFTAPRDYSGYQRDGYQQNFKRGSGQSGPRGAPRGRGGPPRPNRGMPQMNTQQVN

T2: human CAPRIN-1 on the cell membrane surface of human cancer cells (human) (UniProt Q14444)
T2 sequence (looked up): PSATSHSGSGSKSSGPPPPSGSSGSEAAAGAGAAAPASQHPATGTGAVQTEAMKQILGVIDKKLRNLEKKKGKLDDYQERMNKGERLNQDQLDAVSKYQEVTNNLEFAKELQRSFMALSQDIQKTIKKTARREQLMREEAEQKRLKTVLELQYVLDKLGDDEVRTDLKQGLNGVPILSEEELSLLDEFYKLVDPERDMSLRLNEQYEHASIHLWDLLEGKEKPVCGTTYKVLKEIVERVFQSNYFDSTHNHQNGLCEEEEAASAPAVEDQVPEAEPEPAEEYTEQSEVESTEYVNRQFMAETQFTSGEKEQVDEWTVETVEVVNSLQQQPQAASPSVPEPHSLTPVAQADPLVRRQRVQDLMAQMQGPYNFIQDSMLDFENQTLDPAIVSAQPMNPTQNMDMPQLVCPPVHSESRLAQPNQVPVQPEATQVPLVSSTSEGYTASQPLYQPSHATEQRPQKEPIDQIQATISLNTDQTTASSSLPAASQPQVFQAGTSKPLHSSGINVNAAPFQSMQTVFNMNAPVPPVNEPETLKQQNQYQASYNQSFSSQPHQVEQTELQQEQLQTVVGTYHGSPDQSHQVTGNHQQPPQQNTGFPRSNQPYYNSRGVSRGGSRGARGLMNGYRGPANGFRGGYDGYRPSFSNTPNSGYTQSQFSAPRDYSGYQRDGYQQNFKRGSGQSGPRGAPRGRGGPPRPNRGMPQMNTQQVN


Key:
[1] = target: T1, mouse CAPRIN-1 on the cell membrane surface of mouse cancer cells (mouse); assay: flow cytometry, 4T1
[2] = target: T2, human CAPRIN-1 on the cell membrane surface of human cancer cells (human); assay: flow cytometry, HT29
[3] = target: T2, human CAPRIN-1 on the cell membrane surface of human cancer cells (human); assay: flow cytometry, human cancer cells
[4] = target: T1, mouse CAPRIN-1 on the cell membrane surface of mouse cancer cells (mouse); assay: flow cytometry, mouse cancer cells

| Binder | binding [1] | binding [2] | binding [3] | binding [4] |
| --- | --- | --- | --- | --- |
| Fab complex #13 (Fab, V domains shown) VH: GAELVRSGASVKMSCKASGYSFTDYNMYWVKQTPGQGLEWIGYIYPGNGGTNYNQKFKGKATLTADTSSSTAYMQISSLTSEDSAVYFCARDYDDGGYAMDYWGQGTTVTVSS VL: DIQMTQSPASLSASVGETVTITCRASGNIHNYLTWYQQKQGKSPQLLVYNAKTLADGVPSRFSGSGSGTQYSLKINRLQPEDFGSYYCQHFWNIPWTFGGGTKLNSR | binds | binds | binds | binds |
| Fab complex #9 (Fab, V domains shown) VH: AVTLDESGGGLQTPGGALSLVCKASGFTFSGYDMLWVRQAPGKGLEWVAGIGSTGGGTDYGAAVKGRATISRDNGQSTVRLQLNNLRAEDTATYYCAKVAGGCNSGYCRDSPGSIDAWGHGTEVIVS VL: AVTQQPASVSANPGETVKITCSGGGSRNYYGWYQQKSPGSVPVTVIYYDDQRPSNIPSRFSGALSGSTSTLTITGVQADDEAVYFCGSADSNTYEGSFGAGTTLTVL | binds | binds | binds | binds |
| humanized antibody complex #69 (antibody, human IgG1, V domains shown) VH: EVQLVESGGGLVQPGGSLRLSCAASGFSLSSHSLGWVRQAPGKGLEWIGDIRSGGSAYYANWAKGRFTISRDNSKNTLYLQMNSLRAEDTAVYYCTRTNGPSDLTNRLDLWGQGTLVTVSS VL: QVLTQSPSSLSASVGDRVTINCQASQSLYNNENLAWFQQKPGKVPKRLIYGASTLASGVSSRFSGSGSGTEFTLTISSLQCEDFAIYYCLGEFSCGSADCFAFGGGTKVEIK | binds | binds | binds | binds |
| Fab complex #36 (Fab, V domains shown) VH: EVQLVESGGGLVQPGGSLRLSCAASGFSLSSHSLGWVRQAPGKGLEWIGDIRSGGSAYYANWAKGRFTISRDNSKNTLYLQMNSLRAEDTAVYYCTRTNGPSDLTNRLDLWGQGTLVTVSS VL: QVLTQSPSSLSASVGDRVTINCQASQSLYNNENLAWFQQKPGKVPKRLIYGASTLASGVSSRFSGSGSGTEFTLTISSLQCEDFAIYYCLGEFSCGSADCFAFGGGTKVEIK | binds | binds | binds | binds |
| Fab complex #37 (Fab, V domains shown) VH: EVQLVESGGGLVQPGGSLRLSCAASGFSLSSHSLGWVRQAPGKGLEWIGDIRSGGSAYYANWAKGRFTISRDNSKNTLYLQMNSLRAEDTAVYFCTRTNGPSDLTNRLDLWGQGTLVTVSS VL: QVLTQSPSSLSASVGDRVTINCQASQSLYNNENLAWFQQKPGKVPKRLIYGASTLASGVSSRFSGSGSGTEFTLTISSLQCEDFAIYYCLGEFSCGSADCFAFGGGTKVEIK | binds | binds | binds | binds |
| humanized antibody complex #70 (antibody, human IgG1, V domains shown) VH: EVQLVESGGGLVQPGGSLRLSCAASGFSLSSHSLGWVRQAPGKGLEWIGDIRSGGSAYYANWAKGRFTISRDNSKNTLYLQMNSLRAEDTAVYFCTRTNGPSDLTNRLDLWGQGTLVTVSS VL: QVLTQSPSSLSASVGDRVTINCQASQSLYNNENLAWFQQKPGKVPKRLIYGASTLASGVSSRFSGSGSGTEFTLTISSLQCEDFAIYYCLGEFSCGSADCFAFGGGTKVEIK | binds | binds | binds | binds |
| humanized antibody complex #47 (antibody, human IgG1, V domains shown) VH: DAELVKPGASVKISCKASGYTFTDHSIHWVQQKPEQGLEWIGYISPGNGNIKYNEKFKGKATLTADKSSSTAYMQLNSLTSEDSAVYFCKRSLGRGGPYYFDYWGQGTTVTVSS VL: DIVLTQAAPSLPVTPGESVSISCRSSKSLLHSNGNTYLYWFLQRPGQSPQLLIYRMSNLASGVPDRFSGSGSGTAFTLRISRVEAEDVGVYYCMQHREYPVTFGSGPN | binds | binds | binds | binds |
| Fab complex #14 (Fab, V domains shown) VH: DAELVKPGASVKISCKASGYTFTDHSIHWVQQKPEQGLEWIGYISPGNGNIKYNEKFKGKATLTADKSSSTAYMQLNSLTSEDSAVYFCKRSLGRGGPYYFDYWGQGTTVTVSS VL: DIVLTQAAPSLPVTPGESVSISCRSSKSLLHSNGNTYLYWFLQRPGQSPQLLIYRMSNLASGVPDRFSGSGSGTAFTLRISRVEAEDVGVYYCMQHREYPVTFGSGPN | binds | binds | binds | binds |
| humanized antibody complex #63 (antibody, human IgG1, V domains shown) VH: GPDLVKPGASVKISCKASGYSFTAYYMHWVKQSHGKSLEWIGRVNPNNGGTTYNQKFKGKAILTVDKSSSTAYMELRSLTFEDSAVYYCARRIYYGYFDYWGQGTTVTVSS VL: AFFAVSLGQRATISCKASQSVDYDGDSYMNWYQQKPGQPPKLLIYVASNLESGVPARFSGSGSGTDFTLNIHPVEEEDAATYYCQQSNEDPYTFGGGTKLEIKQ | binds | binds | binds | binds |
| Fab complex #30 (Fab, V domains shown) VH: GPDLVKPGASVKISCKASGYSFTAYYMHWVKQSHGKSLEWIGRVNPNNGGTTYNQKFKGKAILTVDKSSSTAYMELRSLTFEDSAVYYCARRIYYGYFDYWGQGTTVTVSS VL: AFFAVSLGQRATISCKASQSVDYDGDSYMNWYQQKPGQPPKLLIYVASNLESGVPARFSGSGSGTDFTLNIHPVEEEDAATYYCQQSNEDPYTFGGGTKLEIKQ | binds | binds | binds | binds |

Results, then the binder that gave them:

| binding [1] | binding [2] | binding [3] | binding [4] | Binder |
| --- | --- | --- | --- | --- |
| binds | binds | binds | binds | humanized antibody complex #72 (antibody, human IgG1, V domains shown) VH: EVQLVESGGGLVQPGGSLRLSCAASGFSLSSHSLGWVRQAPGKGLEWIGDIRSGGSAYYANWAKGRFTISRDNSKNTLYLQMNSLRAEDTAVYFCTRTNGPSDLTNRLDLWGQGTLVTVSS VL: EIVLTQSPSSLSASVGDRVTINCQASQSLYNNENLAWFQQKPGKVPKRLIYGASTLASGVSSRFSGSGSGTEFTLTISNLQPEDFATYYCLGEFSCGSADCFAFGGGTKVEIK |
| binds | binds | binds | binds | humanized antibody complex #71 (antibody, human IgG1, V domains shown) VH: EVQLVESGGGLVQPGGSLRLSCAASGFSLSSHSLGWVRQAPGKGLEWIGDIRSGGSAYYANWAKGRFTISRDNSKNTLYLQMNSLRAEDTAVYYCTRTNGPSDLTNRLDLWGQGTLVTVSS VL: EQVLTQSPSSLSASVGDRVTINCQASQSLYNNENLAWFQQKPGKVPKRLIYGASTLASGVSSRFSGSGSGTEFTLTISNLQPEDFAIYYCLGEFSCGSADCFAFGGGTKVEIK |
| binds | binds | binds | binds | humanized antibody complex #74 (antibody, human IgG1, V domains shown) VH: EVQLVESGGGLVQPGGSLRLSCAASGFSLSSHSLGWVRQAPGKGLEWIGDIRSGGSAYYANWAKGRFTISRDNSKNTLYLQMNSLRAEDTAVYFCTRTNGPSDLTNRLDLWGQGTLVTVSS VL: EQVLTQSPSSLSASVGDRVTINCQASQSLYNNENLAWFQQKPGKVPKRLIYGASTLASGVSSRFSGSGSGTEFTLTISNLQPEDFAIYYCLGEFSCGSADCFAFGGGTKVEIK |
| binds | binds | binds | binds | humanized antibody complex #73 (antibody, human IgG1, V domains shown) VH: EVQLVESGGGLVQPGGSLRLSCAASGFSLSSHSLGWVRQAPGKGLEWIGDIRSGGSAYYANWAKGRFTISRDNSKNTLYLQMNSLRAEDTAVYYCTRTNGPSDLTNRLDLWGQGTLVTVSS VL: EIVLTQSPSSLSASVGDRVTINCQASQSLYNNENLAWFQQKPGKVPKRLIYGASTLASGVSSRFSGSGSGTEFTLTISNLQPEDFATYYCLGEFSCGSADCFAFGGGTKVEIK |
